Test results reported in paper doi:10.1101/2021.08.08.455545.
Results are given in words; binding and its absence hold for the method and conditions named. In cells and extracts the contact can be indirect. Some results given as binding are weak or reduced against the parent protein; the word gives no strength. For some assays here: Sequences can lack the tags named with a protein. Each block holds one binder with its values, some of them ahead of it.

Key:
Assay in all cases: co-IP
[1] = target: T1, Apoptosis inhibitor 5 (Api5), endogenous (human (endogenous in MCF7)) (UniProt Q9BZZ5)
T1 sequence: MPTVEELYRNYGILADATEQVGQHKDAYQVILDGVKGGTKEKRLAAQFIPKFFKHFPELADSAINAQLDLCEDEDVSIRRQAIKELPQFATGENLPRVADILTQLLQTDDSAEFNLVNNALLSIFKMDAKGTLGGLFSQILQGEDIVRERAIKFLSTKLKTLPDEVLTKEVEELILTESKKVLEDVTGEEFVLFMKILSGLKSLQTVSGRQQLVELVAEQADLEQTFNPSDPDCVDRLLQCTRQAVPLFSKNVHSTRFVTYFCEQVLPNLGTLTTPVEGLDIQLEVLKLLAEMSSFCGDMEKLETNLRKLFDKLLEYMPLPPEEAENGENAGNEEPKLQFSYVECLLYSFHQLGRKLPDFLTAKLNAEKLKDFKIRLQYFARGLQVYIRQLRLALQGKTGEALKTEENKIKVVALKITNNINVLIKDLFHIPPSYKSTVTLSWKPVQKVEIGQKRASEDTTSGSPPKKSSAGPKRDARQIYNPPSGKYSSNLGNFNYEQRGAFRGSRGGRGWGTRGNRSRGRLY

myc-tagged FBXO6 (human) = target: T2, myc-tagged FBXO6 (human) (UniProt Q9NRD1)
T2 sequence: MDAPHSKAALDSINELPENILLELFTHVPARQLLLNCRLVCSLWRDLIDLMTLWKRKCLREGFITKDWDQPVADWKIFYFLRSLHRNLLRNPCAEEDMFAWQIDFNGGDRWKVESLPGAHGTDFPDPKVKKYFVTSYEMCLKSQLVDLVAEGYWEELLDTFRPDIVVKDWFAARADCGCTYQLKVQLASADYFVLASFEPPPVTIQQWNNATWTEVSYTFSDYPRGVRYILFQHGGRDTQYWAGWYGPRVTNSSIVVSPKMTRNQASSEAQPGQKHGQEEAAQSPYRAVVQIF

myc-tagged FBXW2 (human) = target: T3, myc-tagged FBXW2 (human) (UniProt Q9UKT8)
T3 sequence: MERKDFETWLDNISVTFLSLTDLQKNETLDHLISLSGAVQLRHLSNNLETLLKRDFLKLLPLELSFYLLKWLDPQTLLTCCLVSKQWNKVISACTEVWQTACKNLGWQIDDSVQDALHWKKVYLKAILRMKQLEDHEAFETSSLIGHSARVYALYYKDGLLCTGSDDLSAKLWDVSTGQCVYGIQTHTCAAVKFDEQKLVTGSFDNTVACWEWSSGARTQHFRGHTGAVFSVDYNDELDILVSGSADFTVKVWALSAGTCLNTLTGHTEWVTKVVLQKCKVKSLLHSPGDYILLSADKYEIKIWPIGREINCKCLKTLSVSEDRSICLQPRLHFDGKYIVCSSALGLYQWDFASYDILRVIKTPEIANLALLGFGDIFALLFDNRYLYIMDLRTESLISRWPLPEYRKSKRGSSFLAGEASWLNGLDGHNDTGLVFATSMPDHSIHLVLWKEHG

myc-tagged FBXO3 (human) = target: T4, myc-tagged FBXO3 (human) (UniProt Q9UK99)
T4 sequence: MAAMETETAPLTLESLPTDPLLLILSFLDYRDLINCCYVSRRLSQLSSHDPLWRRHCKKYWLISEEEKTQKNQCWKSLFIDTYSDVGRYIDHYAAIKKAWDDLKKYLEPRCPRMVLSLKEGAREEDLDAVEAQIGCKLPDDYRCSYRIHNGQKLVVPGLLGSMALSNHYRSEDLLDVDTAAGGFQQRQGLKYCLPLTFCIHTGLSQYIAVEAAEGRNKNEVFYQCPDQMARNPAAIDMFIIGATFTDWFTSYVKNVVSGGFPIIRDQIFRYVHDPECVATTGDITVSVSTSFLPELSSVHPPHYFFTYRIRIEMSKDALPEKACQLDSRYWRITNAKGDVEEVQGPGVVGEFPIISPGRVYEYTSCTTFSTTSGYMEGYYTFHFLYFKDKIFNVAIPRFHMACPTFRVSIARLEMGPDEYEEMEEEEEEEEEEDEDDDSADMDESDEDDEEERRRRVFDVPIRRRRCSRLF

[2] = target: ATR, endogenous (human (endogenous in MCF7)), Q13535; details: remark: other sources report otherwise

binding [1]: binds
B1: FBXW2, endogenous (protein, UniProt Q9UKT8 1-454)
chain: T3 sequence

binding (myc-tagged FBXO6 (human)): binds
binding (myc-tagged FBXW2 (human)): binds
binding (myc-tagged FBXO3 (human)): binds
B2: Apoptosis inhibitor 5 (Api5), endogenous (protein, UniProt Q9BZZ5 1-524)
chain: T1 sequence

binding [2]: binds
B3: mCherry-tagged Api5, Q9BZZ5 1-524 (protein)
chain: T1 sequence
